No constants are given. Whether binding was seen depends on the method and setting. In cells and extracts the contact can be indirect. Some binding calls cover weakened binding; strength is not graded here. Where a sequence is shown, tags or fusion partners need not be part of it.
Target: T1, conserved oligomeric Golgi complex subunit 6 (COG6) fused with 3×Flag tag at C-terminus (human) (UniProt Q9Y2V7)
T1 sequence: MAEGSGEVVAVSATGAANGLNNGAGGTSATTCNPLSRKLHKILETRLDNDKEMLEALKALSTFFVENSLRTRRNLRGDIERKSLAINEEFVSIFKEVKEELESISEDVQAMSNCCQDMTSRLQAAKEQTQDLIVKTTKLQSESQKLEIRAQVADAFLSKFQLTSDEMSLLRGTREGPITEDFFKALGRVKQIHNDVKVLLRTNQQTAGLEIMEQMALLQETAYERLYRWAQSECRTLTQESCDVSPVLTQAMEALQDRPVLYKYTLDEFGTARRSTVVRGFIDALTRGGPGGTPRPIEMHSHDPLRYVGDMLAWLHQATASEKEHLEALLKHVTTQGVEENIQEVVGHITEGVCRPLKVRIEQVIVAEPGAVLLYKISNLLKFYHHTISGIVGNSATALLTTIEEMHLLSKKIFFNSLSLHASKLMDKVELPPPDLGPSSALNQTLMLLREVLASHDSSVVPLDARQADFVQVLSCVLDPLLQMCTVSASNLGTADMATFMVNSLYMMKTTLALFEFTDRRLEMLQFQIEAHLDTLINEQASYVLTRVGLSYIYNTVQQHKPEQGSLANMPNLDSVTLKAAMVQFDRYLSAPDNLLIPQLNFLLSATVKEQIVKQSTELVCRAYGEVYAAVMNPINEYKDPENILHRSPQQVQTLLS
Test: co-IP

Protein sequences, listed by entry. Tags and fused reporters are not part of them.
UniProt P03466: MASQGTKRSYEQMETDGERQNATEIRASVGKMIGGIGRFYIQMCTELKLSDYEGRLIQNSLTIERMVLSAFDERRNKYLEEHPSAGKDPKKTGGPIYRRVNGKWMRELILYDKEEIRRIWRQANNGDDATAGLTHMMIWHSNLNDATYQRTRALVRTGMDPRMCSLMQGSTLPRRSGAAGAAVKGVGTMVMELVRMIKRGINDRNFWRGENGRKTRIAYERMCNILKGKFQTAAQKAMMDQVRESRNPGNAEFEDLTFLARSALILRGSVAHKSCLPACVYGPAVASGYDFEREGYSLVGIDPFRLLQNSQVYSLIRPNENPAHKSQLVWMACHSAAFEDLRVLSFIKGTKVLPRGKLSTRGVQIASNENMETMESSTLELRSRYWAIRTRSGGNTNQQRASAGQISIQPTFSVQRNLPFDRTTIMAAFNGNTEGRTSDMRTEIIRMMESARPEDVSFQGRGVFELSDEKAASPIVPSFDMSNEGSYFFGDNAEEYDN

nucleoprotein (NP) of influenza virus A/Puerto Rico/8/1934 (PR8) (from UniProt P03466 1-498)
binding: binds

From paper PMC12502754
